Data published in paper PMC3085091.
Results are given in words; binding and its absence hold for the method and conditions named. In cells and extracts the contact can be indirect. Binding can be weak; no strength is given. For some assays here: Tags and fused reporters may be left off the sequences shown.

Protein sequences, listed by entry. Tags and fused reporters are not part of them. Lines headed by an entry give the natural chain unless they say otherwise; changes in a name come on top.
UniProt P17302: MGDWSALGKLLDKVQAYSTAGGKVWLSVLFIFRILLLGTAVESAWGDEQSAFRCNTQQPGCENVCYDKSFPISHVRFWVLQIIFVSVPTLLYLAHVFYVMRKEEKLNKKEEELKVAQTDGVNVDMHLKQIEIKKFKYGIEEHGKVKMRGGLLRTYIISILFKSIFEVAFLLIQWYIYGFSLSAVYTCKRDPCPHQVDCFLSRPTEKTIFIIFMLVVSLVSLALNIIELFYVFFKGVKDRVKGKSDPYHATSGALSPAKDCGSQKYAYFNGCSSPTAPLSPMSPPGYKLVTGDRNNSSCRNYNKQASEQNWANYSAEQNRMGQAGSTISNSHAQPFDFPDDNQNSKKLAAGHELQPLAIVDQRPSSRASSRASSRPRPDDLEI

T1: cytoplasmic region of desmocollin-2a wild-type, GST fusion protein, bacterially expressed (UniProt Q02487)
T1 sequence: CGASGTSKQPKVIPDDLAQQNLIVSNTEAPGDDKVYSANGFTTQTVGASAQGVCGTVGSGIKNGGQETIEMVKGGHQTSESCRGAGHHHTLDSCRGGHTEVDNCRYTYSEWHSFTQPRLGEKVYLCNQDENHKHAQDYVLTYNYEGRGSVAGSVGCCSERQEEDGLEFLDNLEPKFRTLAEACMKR


Legend:
[1] = target: T1, cytoplasmic region of desmocollin-2a wild-type, GST fusion protein, bacterially expressed; assay: pull-down; GST pulldown: bacterially expressed GST fusions of the DSC2 cytoplasmic region as bait; GFP fusion of the Cx43 cytoplasmic tail (or GFP alone) expressed in COS-1 cells; only the target purified
[2] = target: full-length desmocollin-2a wild-type, transfected (UniProt Q02487); assay: co-IP; full-length DSC2a WT or mutant, co-immunoprecipitation with plakoglobin; empty vector as control

Row | binding [1] | binding [2] | Molecule
1 | binds |  | connexin43 cytoplasmic tail (CT), green fluorescent protein (GFP) fusion protein (from UniProt P17302) (domain or fragment)
2 |  | binds | plakoglobin in the co-immunoprecipitation with full-length DSC2a (protein, UniProt P14923 1-745) MEVMNLMEQPIKVTEWQQTYTYDSGIHSGANTCVPSVSSKGIMEEDEACGRQYTLKKTTTYTQGVPPSQGDLEYQMSTTARAKRVREAMCPGVSGEDSSLLLATQVEGQATNLQRLAEPSQLLKSAIVHLINYQDDAELATRALPELTKLLNDEDPVVVTKAAMIVNQLSKKEASRRALMGSPQLVAAVVRTMQNTSDLDTARCTTSILHNLSHHREGLLAIFKSGGIPALVRMLSSPVESVLFYAITTLHNLLLYQEGAKMAVRLADGLQKMVPLLNKNNPKFLAITTDCLQLLAYGNQESKLIILANGGPQALVQIMRNYSYEKLLWTTSRVLKVLSVCPSNKPAIVEAGGMQALGKHLTSNSPRLVQNCLWTLRNLSDVATKQEGLESVLKILVNQLSVDDVNVLTCATGTLSNLTCNNSKNKTLVTQNSGVEALIHAILRAGDKDDITEPAVCALRHLTSRHPEAEMAQNSVRLNYGIPAIVKLLNQPNQWPLVKATIGLIRNLALCPANHAPLQEAAVIPRLVQLLVKAHQDAQRHVAAGTQQPYTDGVRMEEIVEGCTGALHILARDPMNRMEIFRLNTIPLFVQLLYSSVENIQRVAAGVLCELAQDKEAADAIDAEGASAPLMELLHSRNEGTATYAAAVLFRISEDKNPDYRKRVSVELTNSLFKHDPAAWEAAQSMIPINEPYGDDMDATYRPMYSSDVPLDPLEMHMDMDGDYPIDTYSDGLRPPYPTADHMLA
